These are yes or no findings as the source states them, for the method shown. Some results given as binding are weak or reduced against the parent protein; the word gives no strength.
What was measured:
mNotch1ECD-Fc [1] = biological target: T1, mNotch1ECD-Fc (mouse, UniProt Q01705 19-1725); experiment: SPR, mNotch1ECD-Fc immobilized
T1 construct: extracellular domain; Immobilized on the SPR chip; also called mouse full length notch extracellular domain; not shown: Fc part

The chains behind the UniProt entries cited, without tags or fusion partners. Residues count along the entry.
UniProt Q01705, residues 19-1725: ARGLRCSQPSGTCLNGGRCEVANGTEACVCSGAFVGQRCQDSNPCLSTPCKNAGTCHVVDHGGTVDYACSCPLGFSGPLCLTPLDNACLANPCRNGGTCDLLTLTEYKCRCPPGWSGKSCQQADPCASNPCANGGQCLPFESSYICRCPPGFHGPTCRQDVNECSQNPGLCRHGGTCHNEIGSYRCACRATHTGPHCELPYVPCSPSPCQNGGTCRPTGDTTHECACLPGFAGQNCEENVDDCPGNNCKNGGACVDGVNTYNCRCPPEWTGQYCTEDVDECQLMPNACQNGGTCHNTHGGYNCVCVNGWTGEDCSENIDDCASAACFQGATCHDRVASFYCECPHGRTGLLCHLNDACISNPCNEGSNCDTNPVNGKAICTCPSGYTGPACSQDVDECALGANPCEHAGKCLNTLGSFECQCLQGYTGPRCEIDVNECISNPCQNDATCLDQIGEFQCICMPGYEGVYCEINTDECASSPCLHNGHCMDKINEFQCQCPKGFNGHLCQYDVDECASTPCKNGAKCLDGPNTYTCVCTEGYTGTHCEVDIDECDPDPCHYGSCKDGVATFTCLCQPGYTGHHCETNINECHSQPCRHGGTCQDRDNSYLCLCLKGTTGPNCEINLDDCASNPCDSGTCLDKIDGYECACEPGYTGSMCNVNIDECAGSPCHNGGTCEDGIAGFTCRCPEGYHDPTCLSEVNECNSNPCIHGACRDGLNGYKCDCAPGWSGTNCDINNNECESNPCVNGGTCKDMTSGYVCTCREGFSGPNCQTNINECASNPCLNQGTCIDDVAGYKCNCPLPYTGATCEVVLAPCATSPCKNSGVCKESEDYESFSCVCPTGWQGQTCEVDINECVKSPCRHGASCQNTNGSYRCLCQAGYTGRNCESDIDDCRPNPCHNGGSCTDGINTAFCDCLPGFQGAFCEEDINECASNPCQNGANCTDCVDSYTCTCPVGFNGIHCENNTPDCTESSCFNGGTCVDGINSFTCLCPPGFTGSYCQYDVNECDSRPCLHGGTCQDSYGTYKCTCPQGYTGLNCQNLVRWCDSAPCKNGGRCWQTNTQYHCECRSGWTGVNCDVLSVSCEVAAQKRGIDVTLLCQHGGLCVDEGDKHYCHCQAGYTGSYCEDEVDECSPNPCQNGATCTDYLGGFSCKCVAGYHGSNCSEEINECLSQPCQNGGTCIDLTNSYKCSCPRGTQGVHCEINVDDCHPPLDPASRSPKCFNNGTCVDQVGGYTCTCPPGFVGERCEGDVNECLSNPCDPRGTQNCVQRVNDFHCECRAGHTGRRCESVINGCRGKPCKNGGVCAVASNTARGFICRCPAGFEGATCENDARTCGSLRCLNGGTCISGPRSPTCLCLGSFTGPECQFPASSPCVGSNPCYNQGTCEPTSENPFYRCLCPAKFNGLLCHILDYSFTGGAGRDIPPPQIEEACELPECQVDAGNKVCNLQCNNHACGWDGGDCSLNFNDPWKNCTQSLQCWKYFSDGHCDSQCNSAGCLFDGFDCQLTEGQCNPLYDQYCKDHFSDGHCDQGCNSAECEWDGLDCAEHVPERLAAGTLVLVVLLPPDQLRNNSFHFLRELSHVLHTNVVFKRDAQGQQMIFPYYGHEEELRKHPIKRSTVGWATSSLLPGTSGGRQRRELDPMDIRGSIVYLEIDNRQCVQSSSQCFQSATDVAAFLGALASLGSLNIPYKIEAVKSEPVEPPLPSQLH

mNotch1ECD-Fc [2] = biological target: T1, mNotch1ECD-Fc; experiment: Open SPR; mouse full length Notch extracellular domain (mNotch1ECD-Fc) immobilized, Tan 6 injected at 2.2, 0.45, 0.22, 0.11 and 0 µM (HBS buffer)

B1: MuDLL1.DSL-EGF12.Tan 6 (NL 99) (ligand)
chain: MAAHHHHHHGGENLYFQGFVCDEHYYGEGCSVFCRPRDDAFGHFTCGDRGEKMCDPGWKGQYCTDPICLPGCDDQHGYCDKPGECKCRVGWQGRYCDECIRYPGCLHGTCQQPWQCNCQEGWGGLFCNQGSSGSSGFVCDEHYYGEGCSVFCRPRDDAFGHFTCGDRGEKMCDPGWKGQYCTDPICLPGCDDQHGYCDKPGECKCRVGWQGRYCDECIRYPGCLHGTCQQPWQCNCQEGWGGLFCNQGSSGSSGFVCDEHYYGEGCSVFCRPRDDAFGHFTCGDRGEKMCDPGWKGQYCTDPICLPGCDDQHGYCDKPGECKCRVGWQGRYCDECIRYPGCLHGTCQQPWQCNCQEGWGGLFCNQGSSGSSGFVCDEHYYGEGCSVFCRPRDDAFGHFTCGDRGEKMCDPGWKGQYCTDPICLPGCDDQHGYCDKPGECKCRVGWQGRYCDECIRYPGCLHGTCQQPWQCNCQEGWGGLFCNQGSSGSSGFVCDEHYYGEGCSVFCRPRDDAFGHFTCGDRGEKMCDPGWKGQYCTDPICLPGCDDQHGYCDKPGECKCRVGWQGRYCDECIRYPGCLHGTCQQPWQCNCQEGWGGLFCNQGSSGSSGFVCDEHYYGEGCSVFCRPRDDAFGHFTCGDRGEKMCDPGWKGQYCTDPICLPGCDDQHGYCDKPGECKCRVGWQGRYCDECIRYPGCLHGTCQQPWQCNCQEGWGGLFCNQ
notes: also called DLL1 Tandem 6×; hexamer
- binding (mNotch1ECD-Fc [1]): binds
- binding (mNotch1ECD-Fc [2]): binds

From patent US20240018213A1 (OHIO STATE INNOVATION FOUNDATION, published 2024)
